Results reported in US12365650B2, “Deuterated organic compounds and uses thereof” (ENGRAIL THERAPEUTICS, INC., priority 2023, dated 2025).

Protein sequences, listed by entry. Tags and fused reporters are not part of them.
UniProt P28223, whole entry: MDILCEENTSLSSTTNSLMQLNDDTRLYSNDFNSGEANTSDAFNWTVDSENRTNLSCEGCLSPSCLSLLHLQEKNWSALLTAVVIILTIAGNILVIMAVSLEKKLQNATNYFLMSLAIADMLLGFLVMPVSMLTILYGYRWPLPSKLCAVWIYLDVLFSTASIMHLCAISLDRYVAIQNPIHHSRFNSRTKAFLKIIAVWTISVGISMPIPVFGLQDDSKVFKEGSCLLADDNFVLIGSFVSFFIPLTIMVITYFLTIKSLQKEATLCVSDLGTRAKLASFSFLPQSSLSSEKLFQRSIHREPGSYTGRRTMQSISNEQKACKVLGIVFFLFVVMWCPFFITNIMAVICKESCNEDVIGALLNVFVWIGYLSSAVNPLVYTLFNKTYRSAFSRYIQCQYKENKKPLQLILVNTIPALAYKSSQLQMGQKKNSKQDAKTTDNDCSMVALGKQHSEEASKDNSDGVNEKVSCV

Experiments:
5-HT2A receptor [1] = target: T1, 5-HT2A receptor (Homo sapiens, UniProt P28223); assay: Radioligand binding competition, filtration binding assay, 5-HT2A ([3H]-DOI); set-up: expressed in transfected cells
5-HT2A receptor [2] = target: T1, 5-HT2A receptor; assay: IP-One HTRF functional assay, 5-HT2A agonist mode; format: cell-based; set-up: expressed in transfected cells

Row | SMILES | IC50 (5-HT2A receptor [1]) | Ki (5-HT2A receptor [1]) | EC50 (5-HT2A receptor [2])
1 | [2H]C([2H])([2H])Oc1cc(NC)c(Cl)cc1C(=O)N[C@@H]1CCN(Cc2ccccc2)[C@@H]1C [Ex. 2 (18), 5-Chloro-N-((2R,3R)-1-((phenyl)methyl)-2-methylpyrrolidin-3-yl)-2-trideuteromethoxy-4-(methylamino)benzamide] | 12.5 nM | 9.9 nM | 4.4 nM
2 | [2H]c1c([2H])c([2H])c(CN2CC[C@@H](NC(=O)c3cc(Cl)c(NC)cc3OC)[C@H]2C)c([2H])c1[2H] [Ex. 1 (10), 5-Chloro-N-((2R,3R)-1-((pentadeuterophenyl)methyl)-2-methylpyrrolidin-3-yl)-2-methoxy-4-(methylamino)benzamide] | 24.1 nM | 9.4 nM | 5 nM
